Drawing on paper PMC9525318, this text covers binding for one substance.

The chains behind the UniProt entries cited, without tags or fusion partners. Where a name states a change or a piece, a line headed by the entry shows the natural chain unless it says otherwise. Residues count along the entry.
UniProt Q01668: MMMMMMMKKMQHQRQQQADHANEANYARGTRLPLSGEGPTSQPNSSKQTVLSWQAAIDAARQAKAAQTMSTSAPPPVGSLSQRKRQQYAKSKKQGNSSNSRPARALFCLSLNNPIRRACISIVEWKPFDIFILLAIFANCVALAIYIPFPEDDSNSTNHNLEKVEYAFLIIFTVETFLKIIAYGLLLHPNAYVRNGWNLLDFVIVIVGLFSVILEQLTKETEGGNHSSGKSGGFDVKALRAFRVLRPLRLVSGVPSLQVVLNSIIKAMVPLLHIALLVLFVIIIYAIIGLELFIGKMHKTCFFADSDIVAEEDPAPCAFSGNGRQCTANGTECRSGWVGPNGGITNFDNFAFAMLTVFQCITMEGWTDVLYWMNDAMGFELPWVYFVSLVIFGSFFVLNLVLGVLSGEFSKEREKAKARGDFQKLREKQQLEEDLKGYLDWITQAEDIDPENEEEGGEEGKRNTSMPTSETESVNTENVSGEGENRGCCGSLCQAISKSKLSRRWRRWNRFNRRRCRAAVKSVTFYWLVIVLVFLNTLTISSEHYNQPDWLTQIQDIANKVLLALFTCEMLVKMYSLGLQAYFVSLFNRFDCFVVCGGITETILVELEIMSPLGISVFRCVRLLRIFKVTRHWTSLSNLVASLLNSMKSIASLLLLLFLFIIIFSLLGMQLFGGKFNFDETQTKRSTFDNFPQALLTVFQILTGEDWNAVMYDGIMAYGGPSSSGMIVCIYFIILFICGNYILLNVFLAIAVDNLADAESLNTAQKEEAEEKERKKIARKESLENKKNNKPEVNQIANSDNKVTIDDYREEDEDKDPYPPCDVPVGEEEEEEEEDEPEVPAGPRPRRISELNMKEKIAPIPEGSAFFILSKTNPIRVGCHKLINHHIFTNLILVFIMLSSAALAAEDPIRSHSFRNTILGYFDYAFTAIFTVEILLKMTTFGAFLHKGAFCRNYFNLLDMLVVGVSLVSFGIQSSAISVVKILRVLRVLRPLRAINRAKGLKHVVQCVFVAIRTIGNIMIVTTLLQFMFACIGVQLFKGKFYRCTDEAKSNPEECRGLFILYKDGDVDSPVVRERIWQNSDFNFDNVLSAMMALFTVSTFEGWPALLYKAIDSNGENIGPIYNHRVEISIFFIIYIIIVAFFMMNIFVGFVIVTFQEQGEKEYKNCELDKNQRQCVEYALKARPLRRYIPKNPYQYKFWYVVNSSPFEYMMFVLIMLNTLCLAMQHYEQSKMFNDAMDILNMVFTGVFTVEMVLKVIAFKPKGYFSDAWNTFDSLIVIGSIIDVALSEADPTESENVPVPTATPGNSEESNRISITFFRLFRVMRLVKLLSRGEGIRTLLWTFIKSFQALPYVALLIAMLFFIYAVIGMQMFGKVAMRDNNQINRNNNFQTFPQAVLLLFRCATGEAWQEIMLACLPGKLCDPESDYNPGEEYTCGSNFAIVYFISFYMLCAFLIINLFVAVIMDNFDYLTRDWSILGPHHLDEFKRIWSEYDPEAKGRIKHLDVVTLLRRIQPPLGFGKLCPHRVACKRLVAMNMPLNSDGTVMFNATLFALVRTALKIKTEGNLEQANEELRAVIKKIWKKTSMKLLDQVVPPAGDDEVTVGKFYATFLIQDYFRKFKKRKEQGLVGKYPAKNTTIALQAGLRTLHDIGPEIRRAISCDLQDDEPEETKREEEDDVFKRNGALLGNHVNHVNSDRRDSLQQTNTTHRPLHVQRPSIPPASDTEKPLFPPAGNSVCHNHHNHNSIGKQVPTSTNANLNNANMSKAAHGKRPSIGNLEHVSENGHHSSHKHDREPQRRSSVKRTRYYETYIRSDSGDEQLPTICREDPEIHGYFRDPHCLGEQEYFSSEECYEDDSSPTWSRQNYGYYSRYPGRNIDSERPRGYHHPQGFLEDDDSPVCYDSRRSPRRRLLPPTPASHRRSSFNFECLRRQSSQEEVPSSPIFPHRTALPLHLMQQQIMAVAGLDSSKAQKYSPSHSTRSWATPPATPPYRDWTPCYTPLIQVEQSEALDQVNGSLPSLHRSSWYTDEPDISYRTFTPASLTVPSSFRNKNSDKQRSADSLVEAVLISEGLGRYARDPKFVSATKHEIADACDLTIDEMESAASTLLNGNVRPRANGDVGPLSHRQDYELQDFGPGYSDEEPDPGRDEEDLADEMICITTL
UniProt P54289, residues 25-1103: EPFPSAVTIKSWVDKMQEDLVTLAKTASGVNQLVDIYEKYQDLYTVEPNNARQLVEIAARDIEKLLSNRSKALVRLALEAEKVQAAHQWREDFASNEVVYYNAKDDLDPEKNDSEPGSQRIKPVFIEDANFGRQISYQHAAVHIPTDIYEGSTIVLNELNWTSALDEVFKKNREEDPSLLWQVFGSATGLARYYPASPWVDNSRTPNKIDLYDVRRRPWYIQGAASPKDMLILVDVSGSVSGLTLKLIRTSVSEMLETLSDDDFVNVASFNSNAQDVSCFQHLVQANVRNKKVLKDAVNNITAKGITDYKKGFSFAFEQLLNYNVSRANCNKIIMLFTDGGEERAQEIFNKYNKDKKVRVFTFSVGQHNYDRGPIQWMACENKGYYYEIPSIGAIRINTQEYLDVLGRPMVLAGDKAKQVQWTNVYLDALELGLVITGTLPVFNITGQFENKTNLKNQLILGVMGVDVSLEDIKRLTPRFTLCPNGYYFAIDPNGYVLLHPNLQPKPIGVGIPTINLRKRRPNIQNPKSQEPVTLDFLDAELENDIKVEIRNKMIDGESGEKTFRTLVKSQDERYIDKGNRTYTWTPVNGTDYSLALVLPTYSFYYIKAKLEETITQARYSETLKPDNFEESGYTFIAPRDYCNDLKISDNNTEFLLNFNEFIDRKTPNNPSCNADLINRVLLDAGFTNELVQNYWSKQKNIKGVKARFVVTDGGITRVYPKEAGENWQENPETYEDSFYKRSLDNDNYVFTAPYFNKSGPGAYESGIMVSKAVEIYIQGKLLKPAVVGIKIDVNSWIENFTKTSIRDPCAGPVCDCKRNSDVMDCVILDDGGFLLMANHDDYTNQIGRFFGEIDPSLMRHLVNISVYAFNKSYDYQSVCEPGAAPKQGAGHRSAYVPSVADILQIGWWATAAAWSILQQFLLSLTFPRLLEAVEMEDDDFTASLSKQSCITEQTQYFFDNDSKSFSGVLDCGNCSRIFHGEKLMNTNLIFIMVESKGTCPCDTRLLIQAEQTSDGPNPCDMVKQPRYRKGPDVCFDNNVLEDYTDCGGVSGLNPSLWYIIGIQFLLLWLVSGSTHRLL

Results are given in words; binding and its absence hold for the method and conditions named. Some results given as binding are weak or reduced against the parent protein; the word gives no strength.

For the test, the target named is human Cav1.3 pore-forming α1 subunit (human) (UniProt Q01668). The test is described as follows: cryo-EM structure; complex of α1, α2δ-1 and β3 co-expressed in HEK293F, purified by affinity and size exclusion chromatography; incubated with 250 μM cinnarizine or 150 μM cp-PYT (the latter taken as apo); both purified.

With “auxiliary α2δ-1 subunit of the human Cav1.3 complex (from UniProt P54289 25-1103)”, the binding entry is listed as “binds”.
